Measurements published in the supplement of paper PMC8728848.
This is one part of the list.

Tests used:
Assay in all cases: glycan array binding signal (z-score within array); higher = stronger binding
Settings in all cases: glycan notation: IUPAC condensed, linker removed
[1] = target: Gal(b1-3)GlcNAc(b1-2)Man(a1-3)[Gal(b1-3)GlcNAc(b1-2)Man(a1-6)]Man(b1-4)GlcNAc(b1-4)GlcNAc
How it was run: (§1)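 From the Consortium for Functional Glycomics database, 3228 arrays were curated, keeping only those whose protein sequence was available. Binding is given as a within-array Z-score averaged across arrays sharing a protein sequence and across linkers. Negative Z-scores can be read as non-binding.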

[2] = target: Gal(b1-3)GlcNAc(b1-2)Man(a1-3)[Gal(b1-3)GlcNAc(b1-2)Man(a1-6)]Man(b1-4)GlcNAc(b1-4)[Fuc(a1-6)]GlcNAc
How it was run: as §1

[3] = target: Gal(b1-3)GlcNAc(b1-2)Man(a1-3)[GlcNAc(b1-4)][Gal(b1-3)GlcNAc(b1-2)Man(a1-6)]Man(b1-4)GlcNAc(b1-4)GlcNAc
How it was run: as §1

[4] = target: Gal(b1-3)GlcNAc(b1-2)[Gal(b1-3)GlcNAc(b1-6)]Man(a1-6)[Gal(b1-3)GlcNAc(b1-2)Man(a1-3)]Man(b1-4)GlcNAc(b1-4)GlcNAc
How it was run: as §1

[5] = target: Gal(b1-3)GlcNAc(b1-3)Gal(b1-3)GlcNAc
How it was run: as §1

[6] = target: Gal(b1-3)GlcNAc(b1-3)Gal(b1-4)Glc
How it was run: as §1

[7] = target: Gal(b1-3)GlcNAc(b1-3)Gal(b1-4)GlcNAc
How it was run: as §1

[8] = target: Gal(b1-3)GlcNAc(b1-3)Gal(b1-4)GlcNAc(b1-2)Man(a1-3)[Gal(b1-3)GlcNAc(b1-3)Gal(b1-4)GlcNAc(b1-2)Man(a1-6)]Man(b1-4)GlcNAc(b1-4)GlcNAc
How it was run: as §1

[9] = target: Gal(b1-3)GlcNAc(b1-3)Gal(b1-4)GlcNAc(b1-2)[Gal(b1-3)GlcNAc(b1-3)Gal(b1-4)GlcNAc(b1-6)]Man(a1-6)[Gal(b1-3)GlcNAc(b1-3)Gal(b1-4)GlcNAc(b1-2)Man(a1-3)]Man(b1-4)GlcNAc(b1-4)[Fuc(a1-6)]GlcNAc
How it was run: as §1

[10] = target: Gal(b1-3)GlcNAc(b1-3)Gal(b1-4)GlcNAc(b1-3)Gal(b1-4)GlcNAc(b1-2)[Gal(b1-3)GlcNAc(b1-3)Gal(b1-4)GlcNAc(b1-3)Gal(b1-4)GlcNAc(b1-6)]Man(a1-6)[Gal(b1-3)GlcNAc(b1-3)Gal(b1-4)GlcNAc(b1-3)Gal(b1-4)GlcNAc(b1-2)Man(a1-3)]Man(b1-4)GlcNAc(b1-4)[Fuc(a1-6)]GlcNAc
How it was run: as §1

[11] = target: Gal(b1-3)GlcNAc(b1-3)Gal(b1-4)GlcNAc(b1-6)[Gal(b1-3)GlcNAc(b1-3)]Gal(b1-4)Glc
How it was run: as §1

[12] = target: Gal(b1-3)GlcNAc(b1-3)Gal(b1-4)[Fuc(a1-3)]GlcNAc
How it was run: as §1

[13] = target: Gal(b1-3)GlcNAc(b1-3)Gal(b1-4)[Fuc(a1-3)]GlcNAc(b1-6)[Gal(b1-3)GlcNAc(b1-3)]Gal(b1-4)Glc
How it was run: as §1

[14] = target: Gal(b1-3)GlcNAc(b1-3)GalNAc
How it was run: as §1

[15] = target: Gal(b1-3)GlcNAc(b1-6)Gal(b1-4)GlcNAc
How it was run: as §1

[16] = target: Gal(b1-3)GlcNAc(b1-6)GalNAc
How it was run: as §1

[17] = target: Gal(b1-3)GlcNAc(b1-6)[Gal(b1-3)]GalNAc
How it was run: as §1

Gal(b1-3)GlcNAc6S = target: Gal(b1-3)GlcNAc6S
How it was run: as §1

[18] = target: Gal(b1-3)[Fuc(a1-4)]GlcNAc
How it was run: as §1

[19] = target: Gal(b1-3)[Fuc(a1-4)]GlcNAc(b1-2)Man
How it was run: as §1

[20] = target: Gal(b1-3)[Fuc(a1-4)]GlcNAc(b1-2)Man(a1-3)[Gal(b1-3)[Fuc(a1-4)]GlcNAc(b1-2)Man(a1-6)]Man(b1-4)GlcNAc(b1-4)[Fuc(a1-6)]GlcNAc
How it was run: as §1

[21] = target: Gal(b1-3)[Fuc(a1-4)]GlcNAc(b1-3)Gal(b1-3)[Fuc(a1-4)]GlcNAc
How it was run: as §1

[22] = target: Gal(b1-3)[Fuc(a1-4)]GlcNAc(b1-3)Gal(b1-4)[Fuc(a1-3)]GlcNAc
How it was run: as §1

[23] = target: Gal(b1-3)[Fuc(a1-4)]GlcNAc(b1-6)GalNAc
How it was run: as §1

[24] = target: Gal(b1-3)[GlcNAc(b1-6)]GalNAc
How it was run: as §1

[25] = target: Gal(b1-3)[Neu5Ac(a2-6)]GalNAc
How it was run: as §1

[26] = target: Gal(b1-3)[Neu5Ac(a2-6)]GlcNAc(b1-4)Gal(b1-4)Glc
How it was run: as §1

[27] = target: Gal(b1-3)[Neu5Ac(b2-6)]GalNAc
How it was run: as §1

Gal(b1-4)Gal = target: Gal(b1-4)Gal
How it was run: as §1

[28] = target: Gal(b1-4)GalNAc(a1-3)[Fuc(a1-2)]Gal(b1-4)GlcNAc
How it was run: as §1

B1: BT4246 (Bacteroides thetaiotaomicron), Q89ZX5 (protein)
chain: MGSSHHHHHHENLYFQGHMASDYLDVVPPEQPNIDDAMSSPTRALGFLYSCYGGVSTDLPSAYLGEINSTTDEYVLPYSWNTDGYWGAYAFNTASSTNQDWLWGTTYQYIGQCYLFLQKLENAGSDIASDAEKEQWRAECQFLVAYYHFATLRRYGPIPITDSYIPMDTPTSEYNGRFHFDYCVDWIANQLDEAAKVLPANRTVTNEWGRATSTIAKAVKARLLLYAASPLWNGSFPYPNWQNENFETPGYGKALVSNTYDKSKWERALAACQEALTLATTSGDRELYDDDEYYSRQSLNLPFVPGVADVEDNKEFLKNVMKMRYAVSTRESEGNKEIIWGLSNQFDFYSRYPLRILKKSDGTWHAGYSGVSPTLYTFEHFYTANGKLPEKDLDFTPSSEWFESAGISSREDIIKLNVGREPRFYAWMAFDGGDYGTKFAAGSPLKLEMRNSEMHGYNPSLFNRDHSVTGFLTQKFVDPVTEFYTAGGSTSGTSAPTILFRLAELYLNVAECHAALGNTQEAIDALNPVRERAGIPKLTLADITNNMTIKDWVHNERFVELWNEGHRFFDVRRWAEGAKYFGANKREGLNAEVQSPTFEEFNKRTTVDAPYVWENRMYLNPVFYNEVYKNPQMVQAPGY
- glycan array binding signal (z-score) [1]: 2
- glycan array binding signal (z-score) [2]: 0.617
- glycan array binding signal (z-score) [3]: 0.771
- glycan array binding signal (z-score) [4]: -0.163
- glycan array binding signal (z-score) [5]: -0.034
- glycan array binding signal (z-score) [6]: -1.07
- glycan array binding signal (z-score) [7]: 0.9
- glycan array binding signal (z-score) [8]: 0.575
- glycan array binding signal (z-score) [9]: 0.092
- glycan array binding signal (z-score) [10]: 0.645
- glycan array binding signal (z-score) [11]: -0.463
- glycan array binding signal (z-score) [12]: -0.575
- glycan array binding signal (z-score) [13]: -0.325
- glycan array binding signal (z-score) [14]: -0.62
- glycan array binding signal (z-score) [15]: -0.284
- glycan array binding signal (z-score) [16]: -0.055
- glycan array binding signal (z-score) [17]: -1.22
- glycan array binding signal (z-score) (Gal(b1-3)GlcNAc6S): -1.39
- glycan array binding signal (z-score) [18]: 0.209
- glycan array binding signal (z-score) [19]: 1.54
- glycan array binding signal (z-score) [20]: -0.424
- glycan array binding signal (z-score) [21]: -1.87
- glycan array binding signal (z-score) [22]: -0.234
- glycan array binding signal (z-score) [23]: -0.872
- glycan array binding signal (z-score) [24]: -0.03
- glycan array binding signal (z-score) [25]: 1.04
- glycan array binding signal (z-score) [26]: -0.308
- glycan array binding signal (z-score) [27]: -0.388
- glycan array binding signal (z-score) (Gal(b1-4)Gal): -0.37
- glycan array binding signal (z-score) [28]: -1.42
